PubChem BioAssay AID1259254 | NCATS | 2017

- Aim: 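Genome-wide screen for genes that prevent DNA re-replication in cancer cells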 (primary screen)
- Cell system: human HCT116 colorectal cancer cells
- Knock-down reagent: single siRNA against human genes
- Timing: 3 days
- Measurement: 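Imaged Hoechst DNA stain sorts each cell into a cycle phase by DNA amount; per plate, G2 fraction set to 0% for non-targeting and 100% for GMNN siRNA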
- Scale: G2 robust z-score and G2 cells, % of GMNN control: higher = more G2 cells, more excess DNA replication; raw share of cells in G2: higher = larger share of cells with G2 DNA content
- Rule for the call: 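An siRNA counts as active if its G2 robust z-score lies at least 5 MADs above the screen median; here such calls match roughly 38% of GMNN control or more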
The deposit covers about 59,000 reagents; shown is an unselected part. Over the whole deposit, about 1,550 (2.6%) are marked active. 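G2 share is only a proxy for re-replication; each gene was hit by three separate siRNAs, and active genes were retested.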 The raw values are shown without normalisation. Entries without a mark were called inactive. The numbers tell different reagents against one gene apart. The record does not give: the amount of reagent.

no.	target gene	reagent no.	G2 robust z-score	G2 cells, % of GMNN control	raw share of cells in G2 (%)
1	ZIC2 (Zic family zinc finger 2)	1	0.651	7.55	6.04
2	ZIC2 (Zic family zinc finger 2)	2	-1.18	-5.32	3.62
3	ZIC2 (Zic family zinc finger 2)	3	-0.174	1.74	4.07
4	RHPN2 (rhophilin Rho GTPase binding protein 2)	1	1.13	10.9	8.73
5	RHPN2 (rhophilin Rho GTPase binding protein 2)	2	2.88	23.2	10.3
6	RHPN2 (rhophilin Rho GTPase binding protein 2)	3	0.246	4.7	4.41
7	RBM4 (RNA binding motif protein 4)	1	2.87	23.2	13
8	RBM4 (RNA binding motif protein 4)	2	1.16	11.1	8.93
9	RBM4 (RNA binding motif protein 4)	3	-0.795	-2.62	3.27
10	AGFG2 (ArfGAP with FG repeats 2)	1	1.17	11.2	9.96
11	AGFG2 (ArfGAP with FG repeats 2)	2	2.03	17.2	11.3
12	AGFG2 (ArfGAP with FG repeats 2)	3	-0.686	-1.86	3.52
13	DGKD (diacylglycerol kinase delta)	1	-1.02	-4.2	4.28
14	DGKD (diacylglycerol kinase delta)	2	-0.771	-2.46	4.3
15	DGKD (diacylglycerol kinase delta)	3	-0.121	2.12	4.36
16	LGALS3BP (galectin 3 binding protein)	1	-1.16	-5.22	3.4
17	LGALS3BP (galectin 3 binding protein)	2	0.263	4.81	7.22
18	LGALS3BP (galectin 3 binding protein)	3	-0.564	-0.998	2.87
19	CALML4 (calmodulin like 4)	1	0.069	3.45	5.55
20	CALML4 (calmodulin like 4)	2	2.28	19	8.95
21	CALML4 (calmodulin like 4)	3	-0.369	0.373	3.04
22	MMP16 (matrix metallopeptidase 16)	1	-0.796	-2.63	4.64
23	MMP16 (matrix metallopeptidase 16)	2	0.0917	3.61	6.19
24	MMP16 (matrix metallopeptidase 16)	3	0.44	6.06	6.17
25	TRIM6 (tripartite motif containing 6)	1	0.308	5.14	6.42
26	TRIM6 (tripartite motif containing 6)	2	2.25	18.8	14.4
27	TRIM6 (tripartite motif containing 6)	3	-0.62	-1.4	4.37
28	CPAMD8 (C3 and PZP like alpha-2-macroglobulin domain containing 8)	1	-0.00577	2.93	4.97
29	CPAMD8 (C3 and PZP like alpha-2-macroglobulin domain containing 8)	2	0.614	7.29	7.3
30	CPAMD8 (C3 and PZP like alpha-2-macroglobulin domain containing 8)	3	3.48	27.5	11.9
31	USP1 (ubiquitin specific peptidase 1)	1	0.694	7.85	8.3
32	USP1 (ubiquitin specific peptidase 1)	2	3.43	27.1	14.5
33	USP1 (ubiquitin specific peptidase 1)	3	-0.606	-1.29	3.43
34	AGXT (alanine--glyoxylate aminotransferase)	1	-0.738	-2.22	3.96
35	AGXT (alanine--glyoxylate aminotransferase)	2	2.3	19.1	11.9
36	AGXT (alanine--glyoxylate aminotransferase)	3	0.762	8.33	7.09
37	TPD52L3 (TPD52 like 3)	1	0.413	5.87	7.33
38	TPD52L3 (TPD52 like 3)	2	-0.521	-0.697	3.46
39	TPD52L3 (TPD52 like 3)	3	0.897	9.28	8.47
40	RPN1 (ribophorin I)	1	0.0338	3.21	6.08
41	RPN1 (ribophorin I)	2	-0.317	0.74	4.96
42	RPN1 (ribophorin I)	3	0.768	8.37	6.93
43	ALG10B (ALG10 alpha-1,2-glucosyltransferase B)	1	-0.724	-2.13	3.11
44	ALG10B (ALG10 alpha-1,2-glucosyltransferase B)	2	-1.3	-6.21	0.994
45	ALG10B (ALG10 alpha-1,2-glucosyltransferase B)	3	0.621	7.34	5.63
46	FAM47A (family with sequence similarity 47 member A)	1	-0.772	-2.46	2.72
47	FAM47A (family with sequence similarity 47 member A)	2	1.01	10.1	6.33
48	FAM47A (family with sequence similarity 47 member A)	3	1.5	13.5	7.04
49	LCN9 (lipocalin 9)	1	-0.937	-3.63	2.96
50	LCN9 (lipocalin 9)	2	0.304	5.11	8.11
51	LCN9 (lipocalin 9)	3	-0.603	-1.28	4.46
52	TRIM9 (tripartite motif containing 9)	1	0.186	4.28	6.1
53	TRIM9 (tripartite motif containing 9)	2	-0.858	-3.07	3.65
54	TRIM9 (tripartite motif containing 9)	3	-0.873	-3.17	4.2
55	OPN4 (opsin 4)	1	-0.311	0.777	6.12
56	OPN4 (opsin 4)	2	1.29	12	8.73
57	OPN4 (opsin 4)	3	2.17	18.3	8.87
58	TBCD (tubulin folding cofactor D)	1	3.69	28.9	17.9
59	TBCD (tubulin folding cofactor D)	2	2.38	19.7	11.7
60	TBCD (tubulin folding cofactor D)	3	-0.793	-2.61	2.42
61	HMGN2P18	1	-0.447	-0.177	3.11
62	HMGN2P18	2	1.07	10.5	5.89
63	HMGN2P18	3	-0.752	-2.32	2.31
64	DGCR2 (DiGeorge syndrome critical region gene 2)	1	-0.938	-3.63	3.69
65	DGCR2 (DiGeorge syndrome critical region gene 2)	2	-0.502	-0.565	3.71
66	DGCR2 (DiGeorge syndrome critical region gene 2)	3	0.00782	3.02	4.51
67	UBE2C (ubiquitin conjugating enzyme E2 C)	1	1.99	17	13.2
68	UBE2C (ubiquitin conjugating enzyme E2 C)	2	-0.539	-0.823	3.88
69	UBE2C (ubiquitin conjugating enzyme E2 C)	3	0.31	5.15	5.63

Copied from the listing, 7 entries:
no.	target gene	reagent no.	G2 robust z-score	G2 cells, % of GMNN control	raw share of cells in G2 (%)
26	TRIM6 (tripartite motif containing 6)	2	2.25	18.8	14.4
27	TRIM6 (tripartite motif containing 6)	3	-0.62	-1.4	4.37
28	CPAMD8 (C3 and PZP like alpha-2-macroglobulin domain containing 8)	1	-0.00577	2.93	4.97
29	CPAMD8 (C3 and PZP like alpha-2-macroglobulin domain containing 8)	2	0.614	7.29	7.3
30	CPAMD8 (C3 and PZP like alpha-2-macroglobulin domain containing 8)	3	3.48	27.5	11.9
31	USP1 (ubiquitin specific peptidase 1)	1	0.694	7.85	8.3
32	USP1 (ubiquitin specific peptidase 1)	2	3.43	27.1	14.5
